Experimental data as given in the supplement of paper PMC10060354, “Discovery of a small molecule ligand of FRS2 that inhibits invasion and tumor growth” (Cellular Oncology, 2022).
Single values are uncertain, as repeats are few or missing.

Chains of the proteins cited; added tags and fusions are not shown. Lines headed by an entry give the natural chain unless they say otherwise; changes in a name come on top.
UniProt P36551: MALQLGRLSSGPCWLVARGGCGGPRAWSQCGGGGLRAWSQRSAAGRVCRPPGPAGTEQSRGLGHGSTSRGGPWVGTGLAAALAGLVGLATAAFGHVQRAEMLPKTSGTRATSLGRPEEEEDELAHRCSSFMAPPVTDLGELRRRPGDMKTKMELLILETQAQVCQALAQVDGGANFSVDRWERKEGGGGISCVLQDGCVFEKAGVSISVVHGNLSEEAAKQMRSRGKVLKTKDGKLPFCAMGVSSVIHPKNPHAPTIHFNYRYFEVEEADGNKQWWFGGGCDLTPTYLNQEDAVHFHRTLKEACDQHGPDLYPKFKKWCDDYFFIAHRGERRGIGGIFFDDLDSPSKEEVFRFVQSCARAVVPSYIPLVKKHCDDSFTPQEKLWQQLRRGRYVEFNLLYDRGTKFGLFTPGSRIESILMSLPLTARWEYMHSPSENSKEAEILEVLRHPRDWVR
UniProt Q96H79: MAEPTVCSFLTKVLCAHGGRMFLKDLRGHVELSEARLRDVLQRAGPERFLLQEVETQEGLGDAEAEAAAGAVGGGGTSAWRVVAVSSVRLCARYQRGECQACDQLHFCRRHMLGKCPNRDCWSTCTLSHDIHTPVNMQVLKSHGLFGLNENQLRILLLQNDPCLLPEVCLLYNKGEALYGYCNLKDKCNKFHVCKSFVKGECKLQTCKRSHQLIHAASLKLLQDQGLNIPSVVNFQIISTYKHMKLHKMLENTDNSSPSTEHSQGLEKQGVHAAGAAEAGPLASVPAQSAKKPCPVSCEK
UniProt Q9Y289: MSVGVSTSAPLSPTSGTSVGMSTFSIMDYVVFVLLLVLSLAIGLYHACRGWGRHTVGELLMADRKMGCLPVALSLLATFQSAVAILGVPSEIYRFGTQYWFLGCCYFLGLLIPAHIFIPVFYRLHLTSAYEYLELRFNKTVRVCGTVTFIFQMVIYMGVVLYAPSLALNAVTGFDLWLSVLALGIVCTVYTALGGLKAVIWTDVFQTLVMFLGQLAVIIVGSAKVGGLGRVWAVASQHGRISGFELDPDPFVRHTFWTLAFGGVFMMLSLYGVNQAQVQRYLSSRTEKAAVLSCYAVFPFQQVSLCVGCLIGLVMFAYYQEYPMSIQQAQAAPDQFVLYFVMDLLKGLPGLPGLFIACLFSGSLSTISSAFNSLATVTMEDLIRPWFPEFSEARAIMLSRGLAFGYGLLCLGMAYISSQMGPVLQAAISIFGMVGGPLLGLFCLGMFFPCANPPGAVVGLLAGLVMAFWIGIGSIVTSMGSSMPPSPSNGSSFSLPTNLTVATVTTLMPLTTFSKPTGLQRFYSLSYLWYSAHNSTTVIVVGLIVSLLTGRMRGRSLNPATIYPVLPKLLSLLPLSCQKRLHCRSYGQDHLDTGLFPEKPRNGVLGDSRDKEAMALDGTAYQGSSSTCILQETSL
UniProt Q9UQM7, whole entry: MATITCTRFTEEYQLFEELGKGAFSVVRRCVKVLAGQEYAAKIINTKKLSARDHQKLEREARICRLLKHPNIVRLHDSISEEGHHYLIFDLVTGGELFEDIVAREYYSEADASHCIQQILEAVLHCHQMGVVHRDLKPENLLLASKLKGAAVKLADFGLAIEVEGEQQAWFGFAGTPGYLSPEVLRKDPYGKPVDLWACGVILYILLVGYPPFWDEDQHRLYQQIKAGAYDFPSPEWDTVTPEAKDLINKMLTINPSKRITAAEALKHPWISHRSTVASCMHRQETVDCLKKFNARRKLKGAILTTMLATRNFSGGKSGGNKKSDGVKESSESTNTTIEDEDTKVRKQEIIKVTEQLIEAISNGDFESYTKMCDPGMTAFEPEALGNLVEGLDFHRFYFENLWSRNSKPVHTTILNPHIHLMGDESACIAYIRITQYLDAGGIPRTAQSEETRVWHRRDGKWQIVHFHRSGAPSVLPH
UniProt Q86YP4: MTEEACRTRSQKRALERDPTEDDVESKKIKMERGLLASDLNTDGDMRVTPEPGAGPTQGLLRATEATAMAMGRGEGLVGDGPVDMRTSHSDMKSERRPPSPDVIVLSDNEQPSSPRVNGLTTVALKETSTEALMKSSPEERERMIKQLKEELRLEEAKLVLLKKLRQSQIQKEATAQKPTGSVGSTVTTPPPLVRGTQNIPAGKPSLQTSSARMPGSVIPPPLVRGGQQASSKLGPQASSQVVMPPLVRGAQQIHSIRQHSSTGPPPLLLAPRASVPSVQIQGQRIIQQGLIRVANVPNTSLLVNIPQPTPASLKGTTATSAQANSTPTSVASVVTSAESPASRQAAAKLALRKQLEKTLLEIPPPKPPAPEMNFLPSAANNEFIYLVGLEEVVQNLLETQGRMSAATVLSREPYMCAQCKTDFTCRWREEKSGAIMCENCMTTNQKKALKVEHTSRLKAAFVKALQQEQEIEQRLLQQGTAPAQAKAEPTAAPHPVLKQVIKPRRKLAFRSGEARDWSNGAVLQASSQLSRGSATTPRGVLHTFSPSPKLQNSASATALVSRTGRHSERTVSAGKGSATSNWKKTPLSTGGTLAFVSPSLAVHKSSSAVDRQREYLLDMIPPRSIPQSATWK
UniProt O75153: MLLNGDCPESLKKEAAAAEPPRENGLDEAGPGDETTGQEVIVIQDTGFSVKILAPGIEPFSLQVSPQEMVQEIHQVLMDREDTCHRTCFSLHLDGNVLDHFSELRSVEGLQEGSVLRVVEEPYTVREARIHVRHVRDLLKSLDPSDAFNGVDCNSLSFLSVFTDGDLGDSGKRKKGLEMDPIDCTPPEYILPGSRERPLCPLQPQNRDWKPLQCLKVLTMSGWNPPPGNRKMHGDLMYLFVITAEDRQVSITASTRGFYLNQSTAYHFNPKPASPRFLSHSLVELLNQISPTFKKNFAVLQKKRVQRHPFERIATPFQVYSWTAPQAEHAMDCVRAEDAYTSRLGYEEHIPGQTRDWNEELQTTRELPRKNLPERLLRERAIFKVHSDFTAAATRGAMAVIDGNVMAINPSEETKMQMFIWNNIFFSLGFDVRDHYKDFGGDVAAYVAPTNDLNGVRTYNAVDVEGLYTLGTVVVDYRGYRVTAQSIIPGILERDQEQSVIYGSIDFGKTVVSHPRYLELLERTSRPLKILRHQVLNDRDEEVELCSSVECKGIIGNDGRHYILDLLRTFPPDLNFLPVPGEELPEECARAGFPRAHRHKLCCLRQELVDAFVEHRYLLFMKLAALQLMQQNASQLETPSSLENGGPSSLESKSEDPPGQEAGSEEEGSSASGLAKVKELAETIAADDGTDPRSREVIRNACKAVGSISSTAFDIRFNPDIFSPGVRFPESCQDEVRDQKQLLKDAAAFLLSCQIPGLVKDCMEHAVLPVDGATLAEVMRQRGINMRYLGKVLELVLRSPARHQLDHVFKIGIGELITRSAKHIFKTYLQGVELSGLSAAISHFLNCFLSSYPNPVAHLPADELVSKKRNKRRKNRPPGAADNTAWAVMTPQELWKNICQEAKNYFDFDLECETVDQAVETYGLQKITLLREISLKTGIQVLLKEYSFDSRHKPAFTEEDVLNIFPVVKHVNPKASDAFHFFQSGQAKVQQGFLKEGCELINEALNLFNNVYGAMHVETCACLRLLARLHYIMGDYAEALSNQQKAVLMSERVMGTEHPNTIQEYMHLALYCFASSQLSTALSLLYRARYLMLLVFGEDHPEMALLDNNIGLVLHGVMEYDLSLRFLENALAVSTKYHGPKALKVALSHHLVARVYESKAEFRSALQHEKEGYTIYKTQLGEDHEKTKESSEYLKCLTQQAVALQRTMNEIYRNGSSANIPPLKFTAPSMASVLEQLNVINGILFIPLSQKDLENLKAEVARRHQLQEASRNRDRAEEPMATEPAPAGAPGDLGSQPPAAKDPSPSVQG
UniProt Q969E8: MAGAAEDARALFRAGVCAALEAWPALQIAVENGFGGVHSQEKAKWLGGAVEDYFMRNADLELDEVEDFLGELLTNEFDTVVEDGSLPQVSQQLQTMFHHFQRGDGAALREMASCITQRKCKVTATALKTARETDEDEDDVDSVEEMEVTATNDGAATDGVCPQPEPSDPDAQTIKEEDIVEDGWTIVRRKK
UniProt P00167, whole entry: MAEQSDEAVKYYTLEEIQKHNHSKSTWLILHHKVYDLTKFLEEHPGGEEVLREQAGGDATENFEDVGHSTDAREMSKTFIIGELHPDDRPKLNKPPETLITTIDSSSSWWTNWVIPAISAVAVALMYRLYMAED
UniProt O43583: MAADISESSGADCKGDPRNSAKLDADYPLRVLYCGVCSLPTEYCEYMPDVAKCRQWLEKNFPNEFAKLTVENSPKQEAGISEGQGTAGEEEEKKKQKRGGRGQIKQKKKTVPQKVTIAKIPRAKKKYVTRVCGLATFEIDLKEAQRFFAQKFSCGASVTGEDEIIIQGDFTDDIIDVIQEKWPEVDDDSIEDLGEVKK
UniProt Q6P1K2: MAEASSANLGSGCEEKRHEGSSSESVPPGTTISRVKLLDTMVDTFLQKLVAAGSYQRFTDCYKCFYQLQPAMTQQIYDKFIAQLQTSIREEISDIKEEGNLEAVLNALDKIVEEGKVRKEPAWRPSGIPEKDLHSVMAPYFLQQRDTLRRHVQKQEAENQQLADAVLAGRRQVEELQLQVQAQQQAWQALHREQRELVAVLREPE
UniProt Q6V1X1: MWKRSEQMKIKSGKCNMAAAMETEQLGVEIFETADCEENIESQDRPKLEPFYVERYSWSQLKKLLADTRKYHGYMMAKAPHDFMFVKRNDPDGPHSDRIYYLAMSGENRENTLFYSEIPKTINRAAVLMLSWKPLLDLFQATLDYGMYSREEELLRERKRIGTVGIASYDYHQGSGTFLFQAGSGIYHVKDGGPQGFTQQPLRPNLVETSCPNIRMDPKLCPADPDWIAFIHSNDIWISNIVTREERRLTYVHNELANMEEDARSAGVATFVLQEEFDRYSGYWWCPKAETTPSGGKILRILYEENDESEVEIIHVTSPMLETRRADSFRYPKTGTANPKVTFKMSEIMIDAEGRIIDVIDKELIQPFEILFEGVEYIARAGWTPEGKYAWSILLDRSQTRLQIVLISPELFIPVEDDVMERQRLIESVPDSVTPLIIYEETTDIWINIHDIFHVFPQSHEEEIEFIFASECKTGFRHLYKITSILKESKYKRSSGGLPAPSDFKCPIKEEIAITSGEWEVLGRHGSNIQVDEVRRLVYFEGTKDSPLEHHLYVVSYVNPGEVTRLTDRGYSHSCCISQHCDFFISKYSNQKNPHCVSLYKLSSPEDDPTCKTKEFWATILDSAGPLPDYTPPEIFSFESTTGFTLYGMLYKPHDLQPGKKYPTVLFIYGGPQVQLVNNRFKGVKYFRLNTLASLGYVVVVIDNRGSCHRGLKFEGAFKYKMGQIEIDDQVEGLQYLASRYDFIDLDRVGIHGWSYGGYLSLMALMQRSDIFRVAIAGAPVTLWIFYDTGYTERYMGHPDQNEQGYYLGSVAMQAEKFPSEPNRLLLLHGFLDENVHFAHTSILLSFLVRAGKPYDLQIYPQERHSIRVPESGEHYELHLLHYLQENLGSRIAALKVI
UniProt P00846: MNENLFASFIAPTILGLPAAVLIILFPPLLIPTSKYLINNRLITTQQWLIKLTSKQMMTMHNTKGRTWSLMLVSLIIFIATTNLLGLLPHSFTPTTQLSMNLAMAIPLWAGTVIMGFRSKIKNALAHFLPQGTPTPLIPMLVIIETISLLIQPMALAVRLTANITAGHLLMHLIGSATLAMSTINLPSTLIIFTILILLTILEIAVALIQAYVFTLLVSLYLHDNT
UniProt Q9HAV0, whole entry: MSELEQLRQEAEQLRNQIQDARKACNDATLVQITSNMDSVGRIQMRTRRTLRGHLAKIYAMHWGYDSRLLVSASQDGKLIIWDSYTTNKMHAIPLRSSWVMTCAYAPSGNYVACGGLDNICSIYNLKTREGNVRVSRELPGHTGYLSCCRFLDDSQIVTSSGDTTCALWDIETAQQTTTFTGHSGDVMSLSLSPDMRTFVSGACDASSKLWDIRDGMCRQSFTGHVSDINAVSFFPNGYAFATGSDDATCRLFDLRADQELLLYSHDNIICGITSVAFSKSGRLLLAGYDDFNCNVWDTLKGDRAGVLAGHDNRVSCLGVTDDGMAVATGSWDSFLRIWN
UniProt Q9BX68: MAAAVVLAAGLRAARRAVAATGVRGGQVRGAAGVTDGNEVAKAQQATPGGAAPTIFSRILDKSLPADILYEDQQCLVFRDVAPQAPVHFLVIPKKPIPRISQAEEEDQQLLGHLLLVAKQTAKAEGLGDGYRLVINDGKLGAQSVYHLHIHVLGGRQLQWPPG
UniProt Q9ULX3: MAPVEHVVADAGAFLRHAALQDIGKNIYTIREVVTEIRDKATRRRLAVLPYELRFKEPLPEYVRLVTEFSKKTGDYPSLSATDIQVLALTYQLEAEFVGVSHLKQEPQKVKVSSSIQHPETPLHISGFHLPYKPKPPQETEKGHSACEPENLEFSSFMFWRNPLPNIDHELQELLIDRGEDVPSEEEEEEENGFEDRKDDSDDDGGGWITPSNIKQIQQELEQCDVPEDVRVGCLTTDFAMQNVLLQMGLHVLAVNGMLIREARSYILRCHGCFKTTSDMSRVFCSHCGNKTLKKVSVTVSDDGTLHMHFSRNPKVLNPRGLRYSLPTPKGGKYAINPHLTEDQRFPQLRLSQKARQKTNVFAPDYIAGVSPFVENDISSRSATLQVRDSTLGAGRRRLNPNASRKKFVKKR

Compound: [O-][N+](C(C1=C(C(O)=C2)NC(C(C=C3)=CC=C3Cl)C4C1C=CC4)=C2Cl)=O
Assay: melting temperature shift (compound 7 minus DMSO); higher = compound stabilises the protein
Conditions: 10 µM
Description: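 Thermal proteome profiling (TMT mass spectrometry) in intact DAOY medulloblastoma cells or DAOY lysates treated with 10 µM compound 7 or DMSO, heated at 10 temperatures from 40.5 to 73.8 °C for 3 min. Melting curves were fitted with the Bioconductor TPP package, and the melting point difference between compound and vehicle is reported per protein (single curve per condition).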

[1] = system: DAOY cell lysate, treatment time: 20 min, 4 °C
[2] = system: intact DAOY cells, treatment time: 90 min, 37 °C

Target | melting temperature shift [1] [°C] | melting temperature shift [2] [°C]
DDX19A (UniProt Q9NUU7) | -0.54 | -0.954
UniProt Q99836 | -0.758 | 0.616
UniProt Q8WXF7 | 3.94 | 0.414
EXOC5 (UniProt O00471) | -0.347 | -1.2
GDAP1 (UniProt Q8TB36) | 2.54 | 2.92
RUVBL2 (UniProt Q9Y230) | -1.21 | 0.557
XPNPEP3 (UniProt Q9NQH7) | -1.05 | -0.0589
ENDOD1 (UniProt O94919) | 1.01 | 0.0577
CPOX (UniProt P36551) | 3.03 | 2.69
SPG7 (UniProt Q9UQ90) | -1.2 | –
MASTL (UniProt Q96GX5) | 0.09 | –
LAS1L (UniProt Q9Y4W2) | 0.222 | –
PARP2 (UniProt Q9UGN5) | -0.983 | –
DPH5 (UniProt Q9H2P9) | -0.327 | -0.387
CLIC1 (UniProt O00299) | -0.434 | 0.15
COL5A2 (UniProt P05997) | 1.55 | –
TMED10 (UniProt P49755) | 1.02 | -1.47
UniProt P20591 | 0.957 | -0.466
AKR1A1 (UniProt P14550) | -0.804 | 0.453
MED6 (UniProt O75586) | -1.1 | 0.629
CAST (UniProt P20810) | -2.63 | –
POLR2A (UniProt P24928) | -0.21 | 0.0215
ACY1 (UniProt Q03154) | -1.46 | 4.06

Looked up above:
For melting temperature shift [1] [°C], MASTL (UniProt Q96GX5) has 0.09
For melting temperature shift [1] [°C], CPOX (UniProt P36551) has 3.03
For melting temperature shift [2] [°C], XPNPEP3 (UniProt Q9NQH7) has -0.0589
For melting temperature shift [1] [°C], CLIC1 (UniProt O00299) has -0.434
For melting temperature shift [2] [°C], UniProt Q8WXF7 has 0.414
For melting temperature shift [1] [°C], PARP2 (UniProt Q9UGN5) has -0.983

Additional records

Target | melting temperature shift [1] [°C] | melting temperature shift [2] [°C]
LYSMD2 (UniProt Q8IV50) | – | -0.375
UniProt Q13454 | – | -1.53
ZC3HAV1L (UniProt Q96H79) | -0.351 | –
DPP7 (UniProt Q9UHL4) | – | 1.39
UniProt Q02040 | -0.652 | -2.1
DR1 (UniProt Q01658) | -1.9 | 0.96
SLC5A6 (UniProt Q9Y289) | -0.142 | -2.48
UniProt P08590 | – | -0.0458
NRF1 (UniProt Q16656) | 0.186 | 0.333
CAMSAP1 (UniProt Q5T5Y3) | -0.742 | -1.46
UniProt O94805 | – | 2.38
CAMK2A (UniProt Q9UQM7) | – | -0.273
UniProt Q05D32 | -1.57 | -0.297
UniProt O43909 | – | -1.07
VKORC1 (UniProt Q9BQB6) | 3.02 | 3.32
UniProt Q16877 | – | 2.45
GATAD2A (UniProt Q86YP4) | -0.255 | 0.0276
CLUH (UniProt O75153) | -0.601 | 1.04
AGFG2 (UniProt O95081) | -0.384 | –
SRPK2 (UniProt P78362) | -0.158 | 0.00816
TSR2 (UniProt Q969E8) | 0.505 | 3.27
CANT1 (UniProt Q8WVQ1) | 0.474 | -0.0931
TNPO3 (UniProt Q9Y5L0) | -0.721 | -0.448

Target | melting temperature shift [1] [°C] | melting temperature shift [2] [°C]
UniProt P00167 | 1.61 | –
NPC1 (UniProt O15118) | 0.31 | -0.187
UniProt Q9BXY0 | 0.563 | -0.23
MED18 (UniProt Q9BUE0) | -1 | 1.73
DAP (UniProt P51397) | 0.162 | –
SPATA5 (UniProt Q8NB90) | 0.608 | -0.963
PDIA4 (UniProt P13667) | 0.586 | 0.649
UniProt Q9H2A2 | – | 2.11
DENR (UniProt O43583) | -0.571 | -0.768
UniProt Q8ND83 | – | -1.4
ATP2C1 (UniProt P98194) | 0.231 | -1.03
TOMM34 (UniProt Q15785) | -0.649 | -0.833
WDR45 (UniProt Q9Y484) | 0.575 | –
UniProt Q96LZ2 | – | -0.428
PMF1 (UniProt Q6P1K2) | 0.246 | -1.42
MED4 (UniProt Q9NPJ6) | -0.574 | -0.548
DNAJC7 (UniProt Q99615) | -0.392 | -1.02
DPP8 (UniProt Q6V1X1) | – | -0.21
SF3B6 (UniProt Q9Y3B4) | 0.0469 | 0.36
WWTR1 (UniProt Q9GZV5) | 0.142 | -6.8
UniProt P00846 | 0.412 | -0.692
FBL (UniProt P22087) | 0.72 | 0.198
ABL1 (UniProt P00519) | -1.74 | –

Target | melting temperature shift [1] [°C] | melting temperature shift [2] [°C]
CCDC51 (UniProt Q96ER9) | 1.9 | -0.237
UniProt P57735 | – | -2.41
UniProt Q8TBP6 | 0.684 | -1.44
TRIM24 (UniProt O15164) | -0.504 | –
UniProt P48729 | 0.445 | 0.185
WDR77 (UniProt Q9BQA1) | -0.457 | -1.36
UniProt O75334 | – | -0.0913
CTSZ (UniProt Q9UBR2) | -0.67 | -3.78
UniProt O75121 | – | 1.19
GNB4 (UniProt Q9HAV0) | 2.09 | –
ATP13A1 (UniProt Q9HD20) | -4 | -1.63
ZFP91 (UniProt Q96JP5) | 0.913 | 0.478
CALCOCO2 (UniProt Q13137) | -0.603 | 0.796
FASTKD2 (UniProt Q9NYY8) | 0.681 | -0.159
P0DMV9 (UniProt P0DMV8) | -0.421 | -0.126
HINT2 (UniProt Q9BX68) | 0.588 | -0.458
PTPN12 (UniProt Q05209) | -0.0787 | 0.0269
GNG12 (UniProt Q9UBI6) | 0.975 | 0.0193
RHOT2 (UniProt Q8IXI1) | 0.245 | 1.01
LIG1 (UniProt P18858) | -0.402 | -0.492
UQCC1 (UniProt Q9NVA1) | 0.541 | –
NOB1 (UniProt Q9ULX3) | -1.41 | -0.484
